The values below come from PMC5379670.

Amino acid sequences for entries named in this document (tags omitted).
UniProt P20152: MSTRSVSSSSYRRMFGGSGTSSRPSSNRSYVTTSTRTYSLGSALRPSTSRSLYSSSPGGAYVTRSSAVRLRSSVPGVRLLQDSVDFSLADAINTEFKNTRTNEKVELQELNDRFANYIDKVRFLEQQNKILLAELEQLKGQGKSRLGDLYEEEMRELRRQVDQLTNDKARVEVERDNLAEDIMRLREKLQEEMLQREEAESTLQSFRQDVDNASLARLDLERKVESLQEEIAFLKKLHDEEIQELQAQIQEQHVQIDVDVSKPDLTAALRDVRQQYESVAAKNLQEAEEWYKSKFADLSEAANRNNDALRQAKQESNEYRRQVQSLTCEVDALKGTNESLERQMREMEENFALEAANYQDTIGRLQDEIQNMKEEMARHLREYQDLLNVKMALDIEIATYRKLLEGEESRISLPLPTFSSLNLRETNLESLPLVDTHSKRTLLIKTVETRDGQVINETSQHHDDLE

No constants are given. Whether binding was seen depends on the method and setting. In cells and extracts the contact can be indirect. Some results given as binding are weak or reduced against the parent protein; the word gives no strength. For part of these data: Tags and fused reporters may be left off the sequences shown.

Assay [1] has as its target endogenous VIME (Vimentin) (mouse (endogenous in P19)) (UniProt P20152). As to the kind of experiment: co-IP; endogenous proteins; P19 cells in 1 μM RA for 4 days, then N2 serum-free medium for another 2, 4, 6 days (cells in RA medium for 0, 2, 4 days as control); by the legend immunoprecipitated with anti-FSCN1 or anti-VIME and blotted with anti-MAGE-G1.
The target of assay [2] is GST-VIME (mouse) (UniProt P20152). The experiment in a line: pull-down; GST fusion proteins from E. coli BL21 held on Glutathione-Sepharose 4B beads, washed, incubated with Flag-MAGE-G1 expressed in HEK293T for 4 h at 4 °C; immunoblotting; only the target purified. In general terms: In western blotting, separated proteins are transferred to a membrane and probed.
For assay [3], the target named is GFP-VIME (mouse) (UniProt P20152). The experiment in a line: co-IP; COS-7 cells transiently co-transfected with Flag-Mage-g1 and a GFP fusion; lysates in IP Lysis Buffer; immunoprecipitation with anti-Flag or, reciprocally, anti-GFP; immunoblotting.

B1: endogenous MAGE-G1 (protein, UniProt Q9CPR8 1-279)
chain: MLQKPRGRGRPSTQADPERDWGGAGEEGPSTSRAAGGSSQGSRASLSAPTVGPRTQKQLELKVAELVQFLLIKDQKKIPIKRTDILKHVVGDYRDVYPNLLKLAAERLQYVFGYKLVELEPKSHSYILINMLEPVEADAEMRGDQGTPISGLLMIVLGLIFMKGNTITETEVWDFLRRLGVYPTKKHLIFGDPKKLITEDFVRQRYLEYRRIPHTDPVDYELQWGPRTNLETSKMKVLKFVAKVHNQDPKDWPTQYCEALADEESRARPATASAPATSS
Regarding B1, the binding result in assay [1] is given as “binds”.

B2: Flag-MAGE-G1 expressed in HEK293T (protein, UniProt Q9CPR8 1-279)
chain: B1 chain
As to B2, in assay [2], the binding result is given as “binds”.

B3: Flag-MAGE-G1 transiently expressed in COS-7 cells (protein, UniProt Q9CPR8 1-279)
chain: B1 chain
For the molecule B3, the binding result in assay [3] is on record as “binds”.
